The exact form of at least one protein or probe is not confirmed. At least one verdict rests on a figure or table, not on a statement of the authors. Where a protein sequence is shown, tags need not be part of it.
Target: T1, BZU2/ZmMUTE (Zea mays) (UniProt K7V1X7)
T1 sequence (looked up, limits assumed): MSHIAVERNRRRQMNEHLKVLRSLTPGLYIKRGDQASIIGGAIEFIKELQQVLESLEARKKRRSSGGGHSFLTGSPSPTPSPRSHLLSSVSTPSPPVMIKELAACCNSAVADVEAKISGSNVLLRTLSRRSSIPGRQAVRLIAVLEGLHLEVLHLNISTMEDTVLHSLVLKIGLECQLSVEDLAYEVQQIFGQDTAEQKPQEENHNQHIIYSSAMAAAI
Test: EMSA
Details: cold probe competitor 2-, 5-, 10-fold; LightShift Chemiluminescent EMSA Kit (Thermo) per manufacturer; pH and temperature not stated; recombinant protein; label: 5' biotin (cold probe unlabeled)

“CAGCCACAACAGGTGTCCCTTTCAAGTGATCTCTGCA (double strand) [P2 (PAN2 promoter E-boxes -187, -200)]”: binds.

“GAATGAGGGGCACCTGGAGAGCACAT (double strand) [P1 (PAN1 promoter E-box -27)]”: binds.

— publication PMC6738654, “BZU2/ZmMUTE controls symmetrical division of guard mother cell and specifies neighbor cell fate in maize”
